Experimental data taken from PMC4924659.
No constants are given. Whether binding was seen depends on the method and setting. Binding seen in cells or lysates may run through a third protein. Some binding calls cover weakened binding; strength is not graded here.

The chains behind the UniProt entries cited, without tags or fusion partners.
UniProt Q96EB6: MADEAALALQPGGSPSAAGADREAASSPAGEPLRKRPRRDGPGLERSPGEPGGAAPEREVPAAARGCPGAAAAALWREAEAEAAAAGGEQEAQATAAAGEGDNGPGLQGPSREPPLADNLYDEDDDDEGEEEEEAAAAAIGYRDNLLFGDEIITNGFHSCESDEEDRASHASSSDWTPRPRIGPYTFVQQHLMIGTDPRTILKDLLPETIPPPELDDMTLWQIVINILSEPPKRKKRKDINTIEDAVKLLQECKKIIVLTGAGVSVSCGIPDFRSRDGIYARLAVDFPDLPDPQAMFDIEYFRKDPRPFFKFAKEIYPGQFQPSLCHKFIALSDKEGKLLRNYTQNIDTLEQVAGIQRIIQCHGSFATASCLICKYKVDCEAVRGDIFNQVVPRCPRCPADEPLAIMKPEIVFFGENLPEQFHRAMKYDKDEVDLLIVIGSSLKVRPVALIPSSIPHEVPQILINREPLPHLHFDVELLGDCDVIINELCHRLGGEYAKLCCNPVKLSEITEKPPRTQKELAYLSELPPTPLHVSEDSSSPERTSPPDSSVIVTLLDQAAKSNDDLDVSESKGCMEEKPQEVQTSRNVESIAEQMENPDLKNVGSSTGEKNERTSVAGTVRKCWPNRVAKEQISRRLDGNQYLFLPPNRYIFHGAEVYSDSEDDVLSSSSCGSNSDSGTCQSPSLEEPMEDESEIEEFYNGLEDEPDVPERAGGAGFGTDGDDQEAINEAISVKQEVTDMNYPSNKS
UniProt P12956: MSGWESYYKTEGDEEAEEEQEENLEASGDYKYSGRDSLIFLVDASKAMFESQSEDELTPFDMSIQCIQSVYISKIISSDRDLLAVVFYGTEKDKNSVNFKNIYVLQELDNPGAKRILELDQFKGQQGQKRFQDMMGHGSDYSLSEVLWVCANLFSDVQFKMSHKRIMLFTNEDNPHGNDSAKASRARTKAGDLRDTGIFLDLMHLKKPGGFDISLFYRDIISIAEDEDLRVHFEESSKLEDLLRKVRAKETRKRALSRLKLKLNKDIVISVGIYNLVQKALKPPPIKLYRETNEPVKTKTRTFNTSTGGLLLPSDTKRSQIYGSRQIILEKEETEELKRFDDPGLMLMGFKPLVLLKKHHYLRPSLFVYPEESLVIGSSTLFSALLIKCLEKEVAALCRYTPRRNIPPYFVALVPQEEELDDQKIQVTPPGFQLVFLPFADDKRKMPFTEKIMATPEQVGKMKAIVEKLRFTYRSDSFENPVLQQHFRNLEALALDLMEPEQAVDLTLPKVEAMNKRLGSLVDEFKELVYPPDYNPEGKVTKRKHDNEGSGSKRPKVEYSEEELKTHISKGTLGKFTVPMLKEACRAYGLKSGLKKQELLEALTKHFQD

Molecular target: SIRT1 (human (endogenous in K562)) (UniProt Q96EB6)
Experiment: co-IP; lysate of K562 cells after etoposide treatment (20 uM, four hours); endogenous proteins precipitated with anti-Ku70 or anti-SIRT1 agarose beads (control IgG alongside), immunoblot for the other protein

binding: binds
Substance: Ku70 (from UniProt P12956 1-609)
